{"source": "paper PMC4966312", "assay_in_all_cases": "two-hybrid; NSMCE3 (WT or mutated) fused to the Gal4 DNA-binding domain, NSMCE1 or NSMCE4 fused to the Gal4-activation domain, coexpressed in yeast; scored on His- plates with 5 mM 3-amino-1,2,4-triazol; 30°C", "key": {"[1]": {"molecular_target": "T1, NSMCE3 Pro209Leu fused to the Gal4 DNA-binding domain (human) (UniProt Q96MG7)", "T1 sequence": "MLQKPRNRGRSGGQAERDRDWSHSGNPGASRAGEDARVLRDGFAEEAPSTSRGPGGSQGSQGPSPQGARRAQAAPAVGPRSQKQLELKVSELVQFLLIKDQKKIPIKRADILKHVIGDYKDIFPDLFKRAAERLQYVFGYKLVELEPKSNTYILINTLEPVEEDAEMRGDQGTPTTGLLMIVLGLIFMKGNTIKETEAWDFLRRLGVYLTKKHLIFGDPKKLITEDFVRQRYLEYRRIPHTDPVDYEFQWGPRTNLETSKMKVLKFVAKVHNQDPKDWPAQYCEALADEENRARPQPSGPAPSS"}, "[2]": {"molecular_target": "T2, NSMCE3 (WT) fused to the Gal4 DNA-binding domain (human) (UniProt Q96MG7)", "T2 sequence": "T1 sequence with L209P"}, "[3]": {"molecular_target": "T3, NSMCE3 Leu264Phe fused to the Gal4 DNA-binding domain (human) (UniProt Q96MG7)", "T3 sequence": "T1 sequence with L209P, L264F"}}, "note": "Residue numbers refer to the chain shown, from its start. Results are given in words; binding and its absence hold for the method and conditions named. For part of these data: A result given as binding can be weak or reduced; the word gives no strength. Sequences can lack the tags named with a protein."}
{"substance": "WT NSMCE4 fused to the Gal4-activation domain", "values": [{"measurement": "binding", "setting": "[1]", "result": "no binding"}, {"measurement": "binding", "setting": "[2]", "result": "binds"}, {"measurement": "binding", "setting": "[3]", "result": "no binding"}]}
